{
  "sequences": {"note": "By UniProt entry, the sequences of proteins in these tests, tags left out. Where a name states a change or a piece, a line headed by the entry shows the natural chain unless it says otherwise. Residues count along the entry.", "UniProt P08047, 2-785": "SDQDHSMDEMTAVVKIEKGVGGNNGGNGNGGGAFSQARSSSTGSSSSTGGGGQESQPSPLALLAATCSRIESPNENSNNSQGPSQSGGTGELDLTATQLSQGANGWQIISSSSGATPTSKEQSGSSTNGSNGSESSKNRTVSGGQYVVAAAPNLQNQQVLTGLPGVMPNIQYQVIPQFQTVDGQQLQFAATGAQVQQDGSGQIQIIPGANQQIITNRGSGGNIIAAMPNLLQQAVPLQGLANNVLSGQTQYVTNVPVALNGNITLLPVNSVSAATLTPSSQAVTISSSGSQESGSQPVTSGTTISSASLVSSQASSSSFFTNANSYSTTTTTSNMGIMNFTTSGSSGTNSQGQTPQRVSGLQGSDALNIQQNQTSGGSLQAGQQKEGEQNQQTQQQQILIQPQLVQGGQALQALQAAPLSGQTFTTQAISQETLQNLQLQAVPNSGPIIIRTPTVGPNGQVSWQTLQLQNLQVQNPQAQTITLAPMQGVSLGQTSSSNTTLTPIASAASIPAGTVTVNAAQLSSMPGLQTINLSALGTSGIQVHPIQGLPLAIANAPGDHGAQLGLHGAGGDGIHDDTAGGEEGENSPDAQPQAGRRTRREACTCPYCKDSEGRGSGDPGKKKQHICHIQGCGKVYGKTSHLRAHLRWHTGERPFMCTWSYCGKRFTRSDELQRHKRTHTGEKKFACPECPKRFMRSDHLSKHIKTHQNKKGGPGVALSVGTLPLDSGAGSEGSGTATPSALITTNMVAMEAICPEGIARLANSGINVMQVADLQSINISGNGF", "UniProt Q02447": "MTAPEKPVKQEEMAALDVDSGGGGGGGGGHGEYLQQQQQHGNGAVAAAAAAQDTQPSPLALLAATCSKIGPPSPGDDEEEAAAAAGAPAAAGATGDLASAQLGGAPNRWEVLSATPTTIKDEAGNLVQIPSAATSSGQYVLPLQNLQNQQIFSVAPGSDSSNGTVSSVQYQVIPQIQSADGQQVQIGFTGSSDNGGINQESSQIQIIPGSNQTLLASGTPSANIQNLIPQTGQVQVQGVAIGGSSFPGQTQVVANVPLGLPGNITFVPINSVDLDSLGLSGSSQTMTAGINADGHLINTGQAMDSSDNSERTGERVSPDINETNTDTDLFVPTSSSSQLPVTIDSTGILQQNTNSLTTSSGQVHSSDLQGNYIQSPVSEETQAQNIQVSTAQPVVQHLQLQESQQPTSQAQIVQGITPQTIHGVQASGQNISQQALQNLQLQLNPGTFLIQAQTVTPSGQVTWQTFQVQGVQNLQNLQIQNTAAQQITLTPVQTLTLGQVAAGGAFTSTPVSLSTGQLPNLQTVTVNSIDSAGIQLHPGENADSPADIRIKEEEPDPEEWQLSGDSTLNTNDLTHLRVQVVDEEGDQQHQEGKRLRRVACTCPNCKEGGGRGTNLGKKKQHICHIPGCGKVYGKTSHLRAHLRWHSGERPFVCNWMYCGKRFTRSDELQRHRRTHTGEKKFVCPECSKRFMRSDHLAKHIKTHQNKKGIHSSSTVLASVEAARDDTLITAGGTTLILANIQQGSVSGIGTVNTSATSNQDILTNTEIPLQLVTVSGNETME"},
  "source": "patent US6376240",
  "key": {"[1]": {"tested_on": "NF-kB p50/p65 (in activated PBL nuclear extract complex)", "test": "EMSA", "conditions": "anti-p50 and anti-p65 supershift both bands; protein in an extract; label: 32P"}, "[2]": {"target": "RFLAT-1 (in activated PBL nuclear extract complex) (homo sapien) (UniProt Q9Y2Y9)", "test": "EMSA", "conditions": "protein in an extract, label: 32P"}, "Sp1": {"target": "Sp1 (UniProt P08047)", "test": "EMSA", "conditions": "anti-Sp1 gave no supershift or disruption; protein in an extract; label: 32P"}, "Sp3": {"target": "Sp3 (UniProt Q02447)", "test": "EMSA", "conditions": "anti-Sp3 gave no supershift or disruption; protein in an extract; label: 32P"}, "c-Rel": {"target": "T1, c-Rel (UniProt Q04864)", "T1 sequence (looked up, limits assumed)": "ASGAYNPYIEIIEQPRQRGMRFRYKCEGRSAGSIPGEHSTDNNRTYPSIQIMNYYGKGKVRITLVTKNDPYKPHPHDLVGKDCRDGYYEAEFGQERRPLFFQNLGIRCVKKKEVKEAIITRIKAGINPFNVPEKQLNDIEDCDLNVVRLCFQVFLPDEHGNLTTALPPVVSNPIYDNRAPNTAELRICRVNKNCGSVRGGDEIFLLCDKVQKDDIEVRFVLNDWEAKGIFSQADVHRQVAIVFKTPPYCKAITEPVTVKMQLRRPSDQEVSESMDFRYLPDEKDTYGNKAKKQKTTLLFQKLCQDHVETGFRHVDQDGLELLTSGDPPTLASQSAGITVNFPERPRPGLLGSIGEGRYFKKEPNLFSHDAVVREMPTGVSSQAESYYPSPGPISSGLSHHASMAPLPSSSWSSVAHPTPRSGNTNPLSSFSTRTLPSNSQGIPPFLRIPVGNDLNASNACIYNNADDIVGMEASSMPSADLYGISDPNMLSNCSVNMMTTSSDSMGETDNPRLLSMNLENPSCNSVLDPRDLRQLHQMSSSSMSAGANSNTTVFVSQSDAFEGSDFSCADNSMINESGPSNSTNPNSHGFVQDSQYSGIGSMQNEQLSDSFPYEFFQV", "test": "EMSA", "conditions": "anti-c-rel gave no supershift; protein in an extract; label: 32P"}, "[3]": {"target": "RFLAT-1 C-terminal portion (phage expression clone, nt 550-1430) (homo sapien) (UniProt Q9Y2Y9)", "test": "binding assay", "conditions": "plaque expression screening; 10 mM Tris pH 7.5, 80 mM NaCl, 1 mM EDTA, 25 C, calf thymus DNA; protein in a lysate after overexpression; protein details: lambda gt11 plaque expression; label: 32P"}},
  "note": "Where cells or extracts were used, other partners may take part. For some of these results: The exact form of at least one protein or probe is not confirmed. For some of these results: Negatives hold for the conditions tested. For some of these results: Tags and fusion partners may be left off the protein sequences shown.",
  "data": [
    {"sequence": "AATTCGCTATTTTGGAAACTCCCCTTAGGGGATGCCCCTCAACTGCG (double strand) [A/B probe]", "values": [
      {"measurement": "binding result", "setting": "[1]", "value": "binds"},
      {"measurement": "binding result", "setting": "[2]; anti-RFLAT-1 disrupts bands 1 and 2, complex also contains NF-kB", "value": "binds"},
      {"measurement": "binding result", "setting": "Sp1", "value": "no binding"},
      {"measurement": "binding result", "setting": "Sp3", "value": "no binding"},
      {"measurement": "binding result", "setting": "c-Rel", "value": "no binding"}
    ]},
    {"sequence": "AATTCGTTGCTATTTTGGAAACTCCCCTTG (double strand) [A probe]", "values": [
      {"measurement": "binding result", "setting": "[2]; antibody disruption, data not shown, variant of A/B probe", "value": "binds"}
    ]},
    {"sequence": "GGGAATTCGAATTCGCTATTTTGGAAACTCCCCTTAGGGCTATTTTGGAAACTCCCCTTAGGGCTATTTTGGAAACTCCCCTTAGGCTCGAGCTCGAGGG (double strand) [A3 (three tandem A sites)]", "values": [
      {"measurement": "binding result", "setting": "[3]", "value": "binds"}
    ]}
  ]
}
